PubChem BioAssay AID743454 | Peter MacCallum Cancer Centre | 2014

Aim: 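Genes whose loss kills vorinostat-resistant colon cancer cells under vorinostat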 (primary screen)
Cell system: human HCT116-VR colon cancer cells, selected for vorinostat resistance
Reagent: siRNA pool against human genes, 40 nM siRNA pool
Timing: vorinostat for 24 h, read-out about 72 h after transfection
Conditions: vorinostat at 2.5 µM final
Measured: 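Two measures, CellTiter-Fluor viability and luminescent caspase 3/7 activity, each as fold change against same-plate mock wells, mean of duplicates, then screen-wide robust z-score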
Reading the numbers: viability robust z-score: higher = more viable cells than screen typical; caspase robust z-score: higher = more caspase 3/7 activity than screen typical
Hit rule: 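a knock-down is a hit when classed RV1 or RV2 for lowered viability, or CA1 or CA2 for caspase activation; those lethal without drug were dropped; hits were retested singly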
In all, the deposit lists about 18,000 reagents; shown is a random part of them. 450 of all reagents (2.5%) were called active. 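Single biological run; no consistent viability z cut-off exists, so the class columns, not z-scores, define the calls.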

target	viability hit class	caspase hit class	viability robust z-score	caspase robust z-score	activity call
MSTO1 (misato mitochondrial distribution and morphology regulator 1)	no change	no change	0.98	-0.23	inactive
NRIP2 (nuclear receptor interacting protein 2)	no change	CA1 (caspase activation)	-1.29	7.5	active
BICD1 (BICD cargo adaptor 1)	no change	no change	0.14	-0.08	inactive
FPGT (fucose-1-phosphate guanylyltransferase)	no change	no change	0.26	-0.47	inactive
ZCCHC10 (zinc finger CCHC-type containing 10)	no change	no change	-1.29	1.25	inactive
SPPL2C (signal peptide peptidase like 2C)	no change	no change	0.52	-0.89	inactive
STAMBPL1 (STAM binding protein like 1)	no change	no change	-1.82	2.32	inactive
SNX4 (sorting nexin 4)	no change	no change	-0.32	2.63	inactive
KLF7 (KLF transcription factor 7)	no change	no change	-0.31	3.92	inactive
PRR5 (proline rich 5)	no change	no change	-0.5	0.98	inactive
CKAP4 (cytoskeleton associated protein 4)	no change	no change	0.14	0.77	inactive
RPL27 (ribosomal protein L27)	no change	no change	-5.56	-0.95	inactive
KRT14 (keratin 14)	no change	no change	-0.75	0.8	inactive
TMUB1 (transmembrane and ubiquitin like domain containing 1)	no change	no change	-0.72	4.25	inactive
C17orf67 (chromosome 17 open reading frame 67)	no change	no change	0.36	0.48	inactive
CYRIB (CYFIP related Rac1 interactor B)	no change	no change	0.44	0.46	inactive
XDH (xanthine dehydrogenase)	no change	no change	-1.45	0.28	inactive
HSPB9 (heat shock protein family B (small) member 9)	no change	no change	1.92	2.7	inactive
GCFC2 (GC-rich sequence DNA-binding factor 2)	no change	no change	-0.12	0.65	inactive
ERGIC3 (ERGIC and golgi 3)	no change	no change	-2.1	1.4	inactive
IFI35 (interferon induced protein 35)	no change	no change	0.84	-0.28	inactive
CLEC6A (C-type lectin domain containing 6A)	no change	no change	0.24	-0.52	inactive
FAM81B (family with sequence similarity 81 member B)	no change	no change	0.86	2.42	inactive
HSFX1 (heat shock transcription factor family, X-linked 1)	no change	no change	-1.5	-0.36	inactive
OS9 (OS9 endoplasmic reticulum lectin)	no change	no change	0.02	-0.79	inactive
H4C16 (H4 histone 16)	no change	no change	-0.74	-0.57	inactive
ERI2 (ERI1 exoribonuclease family member 2)	no change	no change	1.54	0.38	inactive
ADAP1 (ArfGAP with dual PH domains 1)	no change	no change	-0.41	0.9	inactive
CTHRC1 (collagen triple helix repeat containing 1)	no change	no change	-0.23	0.23	inactive
CYP27B1 (cytochrome P450 family 27 subfamily B member 1)	no change	no change	0.2	-0.62	inactive
C10orf95 (chromosome 10 open reading frame 95)	no change	no change	0.83	0.06	inactive
MUC1 (mucin 1, cell surface associated)	no change	no change	-0.06	3.16	inactive
ZNF566 (zinc finger protein 566)	no change	no change	-0.85	1.26	inactive
IL17REL (interleukin 17 receptor E like)	no change	no change	0.07	-0.7	inactive
INSYN1 (inhibitory synaptic factor 1)	no change	no change	0.62	1.29	inactive
MLST8 (MTOR associated protein MLST8)	no change	no change	-0.37	-1.54	inactive
XPO6 (exportin 6)	no change	no change	-0.1	-0.06	inactive
ABITRAM (actin binding transcription modulator)	no change	no change	0.7	-1.01	inactive
YJU2 (YJU2 splicing factor homolog)	no change	no change	0.24	0.56	inactive
TELO2 (telomere maintenance 2)	no change	no change	-0.16	0.18	inactive
HUWE1	no change	no change	-0.22	0.11	inactive
IKBKB (inhibitor of nuclear factor kappa B kinase subunit beta)	no change	no change	-1.01	1.92	inactive
PCDHGB2 (protocadherin gamma subfamily B, 2)	no change	no change	-0.24	-0.72	inactive
MROH2B (maestro heat like repeat family member 2B)	no change	no change	0.36	4.51	inactive
APC (APC regulator of Wnt signaling pathway)	no change	no change	-0.87	0.59	inactive
PRICKLE3 (prickle planar cell polarity protein 3)	no change	no change	1.33	2.08	inactive
CHMP2B (charged multivesicular body protein 2B)	no change	no change	-0.62	-0.98	inactive
MBD3L2 (methyl-CpG binding domain protein 3 like 2)	no change	no change	-0.36	-0.42	inactive
GRM5 (glutamate metabotropic receptor 5)	no change	no change	-1.55	0.29	inactive
CLU (clusterin)	no change	no change	0.78	0.32	inactive
RSRC2 (arginine and serine rich coiled-coil 2)	no change	no change	0.74	0.66	inactive
ELP4 (elongator acetyltransferase complex subunit 4)	no change	no change	-0.22	1.16	inactive
AFG2A (AAA ATPase AFG2A)	no change	no change	0.02	-0.74	inactive
KLK2 (kallikrein related peptidase 2)	no change	no change	0.94	0.39	inactive
HAPLN3 (hyaluronan and proteoglycan link protein 3)	no change	no change	0.3	-0.76	inactive
SEC23IP (SEC23 interacting protein)	no change	no change	0.44	-0.38	inactive
KDSR (3-ketodihydrosphingosine reductase)	no change	no change	0.12	-0.46	inactive

Sorted by “caspase robust z-score” (lowest first): 7 of the entries above
target	viability hit class	caspase hit class	viability robust z-score	caspase robust z-score	activity call
IFI35 (interferon induced protein 35)	no change	no change	0.84	-0.28	inactive
XDH (xanthine dehydrogenase)	no change	no change	-1.45	0.28	inactive
CYRIB (CYFIP related Rac1 interactor B)	no change	no change	0.44	0.46	inactive
C17orf67 (chromosome 17 open reading frame 67)	no change	no change	0.36	0.48	inactive
GCFC2 (GC-rich sequence DNA-binding factor 2)	no change	no change	-0.12	0.65	inactive
ERGIC3 (ERGIC and golgi 3)	no change	no change	-2.1	1.4	inactive
HSPB9 (heat shock protein family B (small) member 9)	no change	no change	1.92	2.7	inactive
